Some of these results come from one statement about several compounds together.
Target: T1, NMDA glutamate receptors NR1/NR2B encoded by the human GRIN1 and GRIN2B genes (Homo sapiens, UniProt Q05586+Q13224)
T1 construct: expressed in transfected cells
Experiment: IonWorks Barracuda automated patch clamp, inhibition of NR1/NR2B receptors in HEK293 cells
Format: cell-based
Experimental: Compounds were tested for inhibition of NMDA receptors using NMDA glutamate receptors NR1/NR2B encoded by the human GRIN1 and GRIN2B genes, expressed in HEK293 cells (originally from ATCC, Manassas, VA). Cells were maintained in tissue culture incubators, and stocks were maintained in cryogenic storage. Cells used for electrophysiology were plated in 150-mm plastic culture dishes. HEK293 cells were transfected with the appropriate ion channel or receptor cDNA(s) encoding NR1 and NR2B. Stable transfectants were selected using the G418 and Zeocin™-resistance genes incorporated into the expression plasmid. Selection pressure was maintained with G418 and Zeocin™ in the culture medium. Cells were cultured in Dulbecco's Modified Eagle Medium/Nutrient Mixture F-12 (D-MEM/F-12) supplemented with 10% fetal bovine serum, 100 U/mL penicillin G sodium, 100 μg/mL streptomycin sulfate, 100 μg/mL Zeocin™, 5 μg/mL blasticidin, and 500 μg/mL G418.
Test compounds were evaluated in 8-point concentration-response format (8 replicate wells/concentration). All test and control solutions contained 0.3% DMSO. The test article formulations were loaded in a 384-well plate using an automated liquid handling system (SciClone ALH3000, Caliper LifeScienses).
The effects of the test compounds were evaluated using the IonWorks® Barracuda™ Automated Patch Clamp System. Intracellular solution contained 50 mM CsCl, 90 mM CsF, 2 mM MgCl2, 5 mM EGTA, and 10 mM HEPES, pH 7.2. This solution was prepared in batches and stored refrigerated. In preparation for a recording session, the intracellular solution was loaded into the intracellular compartment of the PPC planar electrode. Extracellular solution (137 mM NaCl; 1.0 mM KCl; 5 mM CaCl2); 10 mM HEPES; 10 mM glucose; pH 7.4. Patch clamp measurements were made with a holding potential of −70 mV, and the potential during compound application was −40 mV. Extracellular buffer was loaded into the PPC plate wells (11 μL per well). Cell suspension was then pipetted into the wells (9 μL per well) of the PPC planar electrode. Whole-cell recording configuration was established via patch perforation with membrane currents recorded by on-board patch clamp amplifiers. […] The application consisted of two additions of 20 μL test solution containing antagonists at 10 μL/s (2 second total application time). First addition of 2× concentrated articles were preapplied for 5 minutes before the second addition of 1× concentrated articles. Data acquisition was performed via the IonWorks® Barracuda™ software, and data was analyzed using Microsoft Excel (Microsoft Corp., Redmond, WA). Concentration-response data was fitted to a Hill equation of the following form: RESPONSE=Base+[(Max−Base)/(1+(xhalf/x)^rate)] where Base is the response at low concentrations of test article, Max is the maximum response at high concentrations, xhalf is the EC50, or IC50, the concentration of test article producing either half-maximal activation or inhibition, and rate is the Hill coefficient. Nonlinear least squares fits were made assuming a simple binding model. Fits were weighted by the standard deviation. No assumptions about the fit parameters were made; the fit parameters were determined by the algorithm.

Amino acid sequences for entries named in this document (tags omitted). Residues count along the entry.
UniProt Q13224, 27-1484: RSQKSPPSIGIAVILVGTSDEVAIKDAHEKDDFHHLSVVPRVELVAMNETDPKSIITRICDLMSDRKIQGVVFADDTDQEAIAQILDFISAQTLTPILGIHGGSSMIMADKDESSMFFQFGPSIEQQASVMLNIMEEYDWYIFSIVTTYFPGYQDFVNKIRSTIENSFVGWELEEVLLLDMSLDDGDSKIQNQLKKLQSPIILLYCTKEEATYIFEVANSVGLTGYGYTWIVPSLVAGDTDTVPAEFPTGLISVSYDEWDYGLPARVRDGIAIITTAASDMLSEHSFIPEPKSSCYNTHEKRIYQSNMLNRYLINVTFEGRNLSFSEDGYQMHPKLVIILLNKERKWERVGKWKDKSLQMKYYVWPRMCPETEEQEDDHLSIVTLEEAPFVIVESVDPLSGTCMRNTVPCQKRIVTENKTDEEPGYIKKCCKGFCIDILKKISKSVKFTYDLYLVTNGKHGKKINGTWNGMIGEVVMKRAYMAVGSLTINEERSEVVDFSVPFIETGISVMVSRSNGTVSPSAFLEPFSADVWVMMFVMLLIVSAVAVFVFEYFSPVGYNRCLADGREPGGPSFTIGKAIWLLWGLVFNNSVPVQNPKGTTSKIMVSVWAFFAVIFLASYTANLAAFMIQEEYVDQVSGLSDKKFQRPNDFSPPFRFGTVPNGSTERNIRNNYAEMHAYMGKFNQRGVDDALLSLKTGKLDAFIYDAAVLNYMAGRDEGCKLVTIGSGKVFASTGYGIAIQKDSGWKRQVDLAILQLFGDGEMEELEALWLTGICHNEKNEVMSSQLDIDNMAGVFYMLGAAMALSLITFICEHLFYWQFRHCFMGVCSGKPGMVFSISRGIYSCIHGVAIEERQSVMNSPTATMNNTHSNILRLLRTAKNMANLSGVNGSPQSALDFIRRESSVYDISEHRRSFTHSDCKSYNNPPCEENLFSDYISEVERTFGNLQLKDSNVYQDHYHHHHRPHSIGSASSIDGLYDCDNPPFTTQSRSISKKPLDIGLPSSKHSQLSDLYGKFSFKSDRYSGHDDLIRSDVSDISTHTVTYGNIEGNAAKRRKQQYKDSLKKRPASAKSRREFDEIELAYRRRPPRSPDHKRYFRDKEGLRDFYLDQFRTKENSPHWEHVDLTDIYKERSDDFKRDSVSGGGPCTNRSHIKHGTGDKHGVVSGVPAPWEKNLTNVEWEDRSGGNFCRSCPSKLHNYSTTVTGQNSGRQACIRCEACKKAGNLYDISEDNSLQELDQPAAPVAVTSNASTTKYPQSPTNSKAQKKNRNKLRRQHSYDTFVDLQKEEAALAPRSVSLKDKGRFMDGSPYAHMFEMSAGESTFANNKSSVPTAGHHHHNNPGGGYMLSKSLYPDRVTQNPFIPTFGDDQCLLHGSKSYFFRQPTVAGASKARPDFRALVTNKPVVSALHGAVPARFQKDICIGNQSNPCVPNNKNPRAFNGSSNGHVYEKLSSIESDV

| SMILES | Effect on NR1/NR2B glutamate receptors (in words) |
| --- | --- |
| CC12CC3(C)CC(CN)(C1)CC(CO[N+](=O)[O-])(C2)C3.Cl [Cmpd 1] | showed activity for inhibiting the NR1/NR2B glutamate receptor |
| Cl.NCC1(c2cccc(O[N+](=O)[O-])c2)C2CC3CC(C2)CC1C3 (centres unmarked) [Cmpd 2] | showed activity for inhibiting the NR1/NR2B glutamate receptor |
| CCC(O[N+](=O)[O-])C12CC3(C)CC(C)(CC(CCN)(C3)C1)C2.Cl (centres unmarked) [Cmpd 3] | showed activity for inhibiting the NR1/NR2B glutamate receptor |
| Cl.NCC1(c2cccc(OCCCO[N+](=O)[O-])c2)C2CC3CC(C2)CC1C3 (centres unmarked) [Cmpd 4] | showed activity for inhibiting the NR1/NR2B glutamate receptor |
| CC12CC3CC(CN)(C1)CC(O[N+](=O)[O-])(C3)C2.Cl (centres unmarked) [Cmpd 5] | showed activity for inhibiting the NR1/NR2B glutamate receptor |
